One may read the AC50 as the concentration giving half of the maximal activity seen. Low values mean greater potency, high ones weaker potency.

The assay can be described thus: qHTS Assay for Lipid Storage Modulators in Drosophila S3 Cells.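 On cell number change: cells counted by Cell Tracker Red CMTPX staining in the red channel.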 The settings on record: BODIPY lipid droplet fluorescence, 18-24 h; for cell number change: measured here: cell count max response, cells fed with added oleic acid. The essentials: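 Drosophila S3 cells loaded with oleic acid (400 uM, as added) and compounds at several concentrations; lipid droplets imaged by 488-nm laser-scanning cytometry, 500–530 nm intensity and object ratio to cell channel. Percent activity normalized to 20 uM Triacsin C.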
For orientation: Quantitative high-throughput screening tests each substance at several concentrations.

The mark [1] stands for this setting: measured here: lipid fluorescence (Fed channel) AC50, cells fed with added oleic acid.
Where [2] appears, read: measured here: cell number channel AC50, cells fed with added oleic acid.

Some of the results follow. The main result of the screen is listed elsewhere. These columns were measured beside it and carry no call. The list favours compounds with an active or inconclusive main result. Potencies come from curve fits of mixed quality, noted in brackets.

`CN1C(=O)N(C)C2(c3ccccc3)N(C)C(=O)NC12c1ccccc1` (stereo not drawn): the cell number change was -1.21%. Also, the AC50 under setting [1] is 0.164 µM [falling, full curve].

`O=C1CCCN1c1ccc(S(=O)(=O)NCCOc2ccccc2)cc1`: the cell number change was -39.7%. Moreover, under setting [2], the concentration at half-maximal activity (AC50) was 32.6 µM [falling, single point]. Moreover, the AC50 under setting [1] was 29.1 µM [falling, single point].

As for `CC(=O)c1n[nH]nc1NC(=O)c1ccccc1`, the cell number change was -1.18%. Further, the AC50 under setting [1] is 0.00461 µM [rising, full curve, poor fit].

For the compound `CC(=O)c1ccc(N2CCN(C(=O)c3ccco3)C(C)C2)c(F)c1` (stereo not drawn), the AC50 runs as follows: under setting [2], 0.731 µM [rising, single point]; under setting [1], 0.411 µM [rising, partial curve, poor fit].

As for `CC(C)CC(=O)Nc1ccc2c3c(cccc13)CC2`, the cell number change came out at 4.57%. Further, the AC50 under setting [1] was 2.06 µM [rising, partial curve, poor fit].

In the case of `COc1cccc(OC)c1C(=O)Nn1c(-c2cccc(C)c2)nc2ccccc2c1=O`, the cell number change came to 5.85%.

Take `O=[N+]([O-])c1cccc(-c2nc(-c3cccs3)c(-c3cccs3)[nH]2)c1`: the cell number change was -18.4%. Further, the AC50 under setting [1] was 29.1 µM [falling, single point].

`CN(CC(=O)Nc1ccccc1Br)C(=O)COc1ccc2ccccc2c1`: the cell number change is -12.4%.

Consider `Cn1cccc1C(=O)OCC(=O)NC(=O)NC1CCCCC1`, for which the cell number change was found to be 21.6%.

Take `O=C(c1coc2ccc(O)cc12)C1CC1`: the cell number change is 6.74%. Also, the AC50 under setting [1] is 9.2 µM [rising, partial curve].

`C=CCc1ccccc1OCC(O)CN1CCN(c2ccc(OC)cc2)CC1` (stereo not drawn): the cell number change is -12.1%. Moreover, the AC50 under setting [1] was 0.164 µM [falling, full curve].

Regarding `O=S(=O)(c1ccc(F)c(Cl)c1)N1CCN(C/C=C/c2ccccc2)CC1`, the cell number change was -30%. Also, under setting [1], the AC50 was 0.00517 µM [falling, full curve, poor fit].

For the compound `O=C(NCc1cccnc1)NC1(c2ccccc2)CC1`, the cell number change came out at 13.2%. Moreover, the AC50 under setting [1] is 0.0184 µM [falling, full curve, poor fit].

With `O=C(NCc1ccc(F)cc1)C1CCCN1S(=O)(=O)c1ccccc1C(F)(F)F` (stereo not drawn), the cell number change was -2.94%.

As to `CCOC(=O)c1ccc(N=C2C(=S)N(c3ccc(C(=O)OCC)cc3)C(=N)N2/N=C/c2ccccc2)cc1`, the cell number change is -0.332%. Moreover, the AC50 under setting [1] is 6.51 µM [rising, single point].

For `CCCC1S/C(=N/N=C/c2ccc(OC)cc2)N(Cc2ccccc2)C1=O` (stereo not drawn), the AC50 is, setting by setting: under setting [2], 0.411 µM [rising, full curve, poor fit]; under setting [1], 0.58 µM [rising, single point].

Turning to `COC(=O)[C@@]12CCCCN1[C@H](c1ccc(-c3ccc4c(c3)OCO4)c(OC)c1)[C@@H]1C(=O)N(C)C(=O)[C@@H]12`, the cell number change came out at 19.2%. Moreover, the AC50 under setting [1] is 0.184 µM [rising, full curve, poor fit].

In the case of `Cc1cc([N+](=O)[O-])nn1Cn1nc([N+](=O)[O-])cc1C`, the cell number change was -36.1%. The concentration at half-maximal activity (AC50) under setting [2] is 29.1 µM [falling, single point]. For the same compound, the AC50 under setting [1] was 2.06 µM [falling, partial curve].

Consider `COc1ccc(OC(C)C(=O)N2CCOCC2)cc1` (stereo not drawn), for which the cell number change stood at 5.06%.

Turning to `O=C(N/N=C/c1ccco1)c1cccc(NC(=O)c2cccc(Cl)c2)c1`, the cell number change came out at 15.1%. Moreover, the AC50 under setting [2] was 6.51 µM [rising, single point].

For the compound `CCC(C)(C)NC(=O)Cn1c(=O)oc2cc(S(=O)(=O)N3CC(C)CC(C)C3)ccc21` (stereo not drawn), the cell number change was -10%. Under setting [1], the AC50 was 9.2 µM [falling, partial curve].

For `O=C(CC(=O)Nc1ccc(Cl)cc1)N/N=C\c1cccc(F)c1`, the cell number change is 16.7%.

With `Cc1nn(Cc2ccccc2Cl)c(Cl)c1C(=O)NCCc1ccccc1`, the cell number change amounted to 34.6%. For the same compound, the AC50 under setting [2] was 3.26 µM [rising, full curve].

Consider `CS(=O)(=O)N(CCc1ccccc1)CC(=O)NCc1ccco1`, for which the cell number change was -27.2%. Under setting [1], the AC50 was 18.4 µM [falling, single point].

Regarding `COc1ccc(C(C(=O)NC2CCCC2)N(CC2CCCO2)C(=O)Cc2cccs2)cc1OC` (stereo not drawn), the cell number change is -2.05%. Moreover, under setting [1], the AC50 was 0.82 µM [falling, full curve, poor fit].

For `Cc1ccc(C)c(S(=O)(=O)N2CCN(CC(=O)NC(=O)NCc3ccco3)CC2)c1`, the cell number change is -10.5%.

`CCOc1ccc(C(=O)NNC(=O)c2cc(S(=O)(=O)N3CCOCC3)ccc2Cl)cc1`: the AC50 under setting [1] is 32.6 µM [falling, single point].

On to `CSc1ccccc1NC(=O)c1ccccc1C`, for which the cell number change is -8.92%. Further, the AC50 under setting [1] was 0.103 µM [rising, full curve, poor fit].

In the case of `N#Cc1c(NC(=O)c2cc([N+](=O)[O-])ccc2N2CCOCC2)sc2c1CCCC2`, the AC50 under setting [1] was 1.3 µM [rising, partial curve].

For `CCOC(=O)C1CSC(CC(=O)Nc2ccc(OC(F)(F)F)cc2)C(=O)N1` (stereo not drawn), the cell number change is -38%. Further, the AC50 under setting [2] is 4.11 µM [falling, full curve, poor fit].

For `COc1ccc2[nH]cc(CCN3C(=O)CCC3=O)c2c1`, the cell number change is -14.9%. Also, the concentration at half-maximal activity (AC50) under setting [1] is 5.8 µM [falling, single point].

With `O=C(NC12CC3CC(CC(C3)C1)C2)c1ccc(-c2ccccc2Cl)o1`, the cell number change is -6.14%. For the same compound, the AC50 under setting [1] was 1.64 µM [falling, full curve, poor fit].

On to `O=C(Nc1nccs1)c1cc(N2CCOCC2)nc2ccccc12`, for which the cell number change was -2.16%. In addition, the AC50 under setting [2] was 6.51 µM [falling, single point]. For the same compound, the concentration at half-maximal activity (AC50) under setting [1] is 5.17 µM [falling, single point].

Consider `O=C(CN1C(=O)c2ccccc2S1(=O)=O)NCCSCc1ccccc1Cl`, for which the cell number change came to 24.3%. Further, the half-maximal activity concentration (AC50) under setting [2] is 0.366 µM [rising, full curve, poor fit]. For the same compound, the AC50 under setting [1] is 1.64 µM [rising, partial curve, poor fit].

Take `COCCN(CCOC)C(=O)C12CCC(C)(C(=O)C1)C2(C)C` (stereo not drawn): the cell number change was 3.26%.

On to `O=C(O)CNS(=O)(=O)c1ccc(C2CCCCC2)cc1`, for which the cell number change is -39.8%. Moreover, the concentration at half-maximal activity (AC50) under setting [2] is 0.0231 µM [falling, full curve]. Under setting [1], the AC50 is 0.651 µM [falling, partial curve, poor fit].

Consider `O=C(O)c1nn(CCOc2c(Cl)cccc2Cl)c(=O)c2ccccc12`, for which the cell number change was found to be 9.52%. For the same compound, the concentration at half-maximal activity (AC50) under setting [1] is 20.6 µM [rising, single point].

Take `COC(=O)[C@H](C)NC(=O)Nc1ccccc1C(F)(F)F`: the cell number change turned out to be 0.281%.

For the compound `N#CCC(=O)N1CCCCCC1`, the cell number change is -6.32%.

In the case of `CC(C)(C)c1ccc(C[C@H](C(=O)O)N2C(=O)c3ccc(C(=O)O)cc3C2=O)cc1`, the cell number change was -26.6%. Moreover, the AC50 under setting [1] is 29.1 µM [falling, single point].

Regarding `CC(CCc1ccccc1)NC(=O)c1nnc(Cc2ccc(Cl)cc2)o1` (stereo not drawn), the cell number change is 42.6%. Further, the half-maximal activity concentration (AC50) under setting [2] is 7.31 µM [rising, partial curve]. Besides, the AC50 under setting [1] is 13 µM [rising, partial curve].

`CCOC(=O)N1CCN(C(=O)c2cc3cc(Br)ccc3oc2=O)CC1`: the cell number change is -10.7%. Also, the AC50 under setting [1] was 0.092 µM [rising, full curve, poor fit].

As for `CC(=O)NC12CC3CC(C1)CC(C(=O)N1CCN(S(=O)(=O)c4cccc(F)c4)CC1)(C3)C2`, the cell number change came to 30.7%. For the same compound, the AC50 under setting [1] was 22.4 µM [rising, single point].

As to `N#CCCn1cc(C(=O)Nc2ccc([N+](=O)[O-])cc2)c(-c2cc3ccccc3o2)n1`, the cell number change was -23.7%. In addition, the AC50 under setting [1] is 29.1 µM [falling, partial curve, poor fit].

Consider `COc1ccc(/C=N/N2CCN(Cc3ccccc3)CC2)cc1`, for which the cell number change came to 17.2%. Moreover, the AC50 under setting [1] was 29.1 µM [rising, single point].

Turning to `CN1CCN(c2ccc([N+](=O)[O-])cc2NC(=O)c2cccs2)CC1`, the cell number change turned out to be 21.1%. In addition, the AC50 under setting [1] is 0.259 µM [falling, partial curve, poor fit].

For the compound `CCC(C)c1ccc(OCC(=O)Nc2cccc(C(=O)Nc3ccc(C(=O)O)cc3)c2)cc1` (stereo not drawn), the AC50 under setting [1] is 29.1 µM [rising, single point].

Consider `Cc1ccc(CN2C(=O)CCC2C(=O)NCCCN2CCC(C)CC2)cc1` (stereo not drawn), for which the cell number change was -16%. Besides, under setting [2], the AC50 is 0.231 µM [falling, full curve]. The AC50 under setting [1] was 25.9 µM [falling, partial curve].

In the case of `Cc1cc(C)n2nc(C(=O)OCC(=O)NC(=O)c3ccccc3)nc2n1`, the cell number change was -24%.

On to `COc1cccc(OCc2cc(C(=O)N(C)C3CC(C)(C)NC(C)(C)C3)no2)c1`, for which the cell number change stood at 30.2%. Moreover, the AC50 under setting [2] is 29.1 µM [rising, single point].

With `C#CCOc1c(/C=C\c2nc(O)c([N+](=O)[O-])c(=O)[nH]2)cc(Br)cc1OC`, the cell number change was 17.6%. Further, the AC50 under setting [1] is 29.1 µM [rising, single point].

For the compound `CC(C)=CCc1c(O)ccc(C(=O)Cc2ccccc2)c1O`, the cell number change is -44.3%. Besides, under setting [2], the AC50 is 13 µM [falling, partial curve]. The AC50 under setting [1] was 23.1 µM [falling, partial curve].

For the compound `COC(=O)CCNC(=O)Cc1c(C)n(C(=O)c2ccc(Cl)cc2)c2ccc(OC)cc12`, the cell number change was 28.4%. In addition, under setting [1], the AC50 was 11.6 µM [rising, single point].

Turning to `Cc1ccc(-n2c(SCC(=O)N3CCC(C(=O)O)CC3)nc3ccccc3c2=O)cc1C`, the cell number change turned out to be 5.88%. Besides, the AC50 under setting [1] is 6.51 µM [rising, partial curve, poor fit].

As to `Cc1cc(-c2n[nH]c(=S)n2/N=C/c2ccco2)n[nH]1`, the cell number change came to 16%. Besides, the AC50 under setting [1] was 3.26 µM [rising, single point].

For the compound `COc1cccc(C(=O)C2CCCN(C/C=C/c3ccccc3OC)C2)c1` (stereo not drawn), the cell number change amounted to 9.48%.

In the case of `COCCn1c(-c2ccccc2)cnc1N`, the cell number change was -13.8%. In addition, the AC50 under setting [2] was 6.51 µM [rising, single point]. The AC50 under setting [1] is 5.17 µM [rising, single point].

Turning to `COc1cc(NC(=O)COC(=O)CCOc2ccc(C)cc2)cc(OC)c1`, the cell number change was determined as 50.5%. Further, under setting [2], the AC50 was 5.8 µM [rising, partial curve, poor fit].

Consider `Nc1ccc(C(=O)N/N=C/c2sc(N3CCOCC3)nc2-c2ccccc2)cc1`, for which the AC50 under setting [1] is 2.91 µM [rising, full curve].

`O=C(CSc1nncs1)N1CCN(C(=O)c2ccco2)CC1`: the cell number change is -12.6%. Also, under setting [1], the AC50 was 2.59 µM [falling, full curve, poor fit].

The values are drawn from PubChem BioAssay AID2685 (National Center for Advancing Translational Sciences (NCATS), 2010).
